Experimental data: the supplement of paper PMC10849652
The list shows a part of the results.

Chains of the proteins cited; added tags and fusions are not shown. Lines headed by an entry give the natural chain unless they say otherwise; changes in a name come on top.
UniProt Q9BTX3: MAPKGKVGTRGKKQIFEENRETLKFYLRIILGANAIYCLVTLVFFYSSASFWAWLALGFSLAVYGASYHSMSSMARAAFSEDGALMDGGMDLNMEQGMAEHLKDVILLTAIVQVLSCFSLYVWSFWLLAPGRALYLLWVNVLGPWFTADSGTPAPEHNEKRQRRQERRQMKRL
UniProt Q96Q45: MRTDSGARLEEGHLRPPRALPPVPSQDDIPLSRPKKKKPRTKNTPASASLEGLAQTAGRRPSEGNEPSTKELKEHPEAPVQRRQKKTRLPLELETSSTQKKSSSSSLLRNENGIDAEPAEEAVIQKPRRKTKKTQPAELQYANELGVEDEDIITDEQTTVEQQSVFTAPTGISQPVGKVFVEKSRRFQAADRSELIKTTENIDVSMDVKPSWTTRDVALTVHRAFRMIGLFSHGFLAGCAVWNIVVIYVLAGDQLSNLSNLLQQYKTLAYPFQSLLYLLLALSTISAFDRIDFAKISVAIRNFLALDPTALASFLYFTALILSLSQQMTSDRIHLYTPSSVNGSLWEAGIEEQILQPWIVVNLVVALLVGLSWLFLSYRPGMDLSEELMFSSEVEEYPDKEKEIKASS
UniProt O95807: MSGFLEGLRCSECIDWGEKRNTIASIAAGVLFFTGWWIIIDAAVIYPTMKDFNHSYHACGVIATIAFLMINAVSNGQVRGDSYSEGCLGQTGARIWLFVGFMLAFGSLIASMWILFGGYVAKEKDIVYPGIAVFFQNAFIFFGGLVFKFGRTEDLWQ
UniProt Q9H0R3: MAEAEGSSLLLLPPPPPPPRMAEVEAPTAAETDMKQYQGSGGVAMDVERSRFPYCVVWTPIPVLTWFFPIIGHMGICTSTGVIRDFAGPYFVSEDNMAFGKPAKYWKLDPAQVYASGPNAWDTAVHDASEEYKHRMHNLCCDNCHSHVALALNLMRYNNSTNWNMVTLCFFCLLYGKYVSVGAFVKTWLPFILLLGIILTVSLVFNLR
UniProt Q9NWH2: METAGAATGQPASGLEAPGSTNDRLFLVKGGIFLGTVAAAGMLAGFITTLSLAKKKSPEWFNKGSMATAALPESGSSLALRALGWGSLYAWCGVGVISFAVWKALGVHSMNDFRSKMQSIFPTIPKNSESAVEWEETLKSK
UniProt P55327: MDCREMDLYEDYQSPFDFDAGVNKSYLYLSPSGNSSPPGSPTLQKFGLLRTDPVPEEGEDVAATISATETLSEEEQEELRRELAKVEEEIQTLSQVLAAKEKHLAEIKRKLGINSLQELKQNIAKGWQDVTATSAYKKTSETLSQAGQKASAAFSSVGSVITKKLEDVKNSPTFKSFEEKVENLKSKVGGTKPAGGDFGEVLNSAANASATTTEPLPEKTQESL
UniProt Q2T9K0: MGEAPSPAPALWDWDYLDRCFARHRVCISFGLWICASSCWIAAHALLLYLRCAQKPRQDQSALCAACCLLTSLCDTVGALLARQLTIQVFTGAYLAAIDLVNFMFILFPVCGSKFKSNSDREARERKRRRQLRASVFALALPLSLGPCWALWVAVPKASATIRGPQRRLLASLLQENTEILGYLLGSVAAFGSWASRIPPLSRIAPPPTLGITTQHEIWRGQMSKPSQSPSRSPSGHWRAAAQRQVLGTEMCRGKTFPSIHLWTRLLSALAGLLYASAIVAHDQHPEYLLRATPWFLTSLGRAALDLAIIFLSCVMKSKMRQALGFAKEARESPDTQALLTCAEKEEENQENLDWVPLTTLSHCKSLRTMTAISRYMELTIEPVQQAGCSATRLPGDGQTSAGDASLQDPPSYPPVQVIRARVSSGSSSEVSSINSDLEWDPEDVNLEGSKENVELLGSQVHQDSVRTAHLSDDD
UniProt Q9BSE2: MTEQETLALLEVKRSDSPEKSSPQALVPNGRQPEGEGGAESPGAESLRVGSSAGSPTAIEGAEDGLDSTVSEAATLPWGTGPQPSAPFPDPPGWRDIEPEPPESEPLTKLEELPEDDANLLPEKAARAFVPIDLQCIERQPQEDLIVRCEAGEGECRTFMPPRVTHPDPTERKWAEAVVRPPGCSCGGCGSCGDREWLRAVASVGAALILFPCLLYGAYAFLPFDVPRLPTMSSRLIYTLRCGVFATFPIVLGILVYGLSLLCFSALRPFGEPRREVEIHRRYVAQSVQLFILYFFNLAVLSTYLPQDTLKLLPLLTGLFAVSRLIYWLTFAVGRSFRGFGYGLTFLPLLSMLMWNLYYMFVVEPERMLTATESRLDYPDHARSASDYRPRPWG
UniProt Q9UKE5: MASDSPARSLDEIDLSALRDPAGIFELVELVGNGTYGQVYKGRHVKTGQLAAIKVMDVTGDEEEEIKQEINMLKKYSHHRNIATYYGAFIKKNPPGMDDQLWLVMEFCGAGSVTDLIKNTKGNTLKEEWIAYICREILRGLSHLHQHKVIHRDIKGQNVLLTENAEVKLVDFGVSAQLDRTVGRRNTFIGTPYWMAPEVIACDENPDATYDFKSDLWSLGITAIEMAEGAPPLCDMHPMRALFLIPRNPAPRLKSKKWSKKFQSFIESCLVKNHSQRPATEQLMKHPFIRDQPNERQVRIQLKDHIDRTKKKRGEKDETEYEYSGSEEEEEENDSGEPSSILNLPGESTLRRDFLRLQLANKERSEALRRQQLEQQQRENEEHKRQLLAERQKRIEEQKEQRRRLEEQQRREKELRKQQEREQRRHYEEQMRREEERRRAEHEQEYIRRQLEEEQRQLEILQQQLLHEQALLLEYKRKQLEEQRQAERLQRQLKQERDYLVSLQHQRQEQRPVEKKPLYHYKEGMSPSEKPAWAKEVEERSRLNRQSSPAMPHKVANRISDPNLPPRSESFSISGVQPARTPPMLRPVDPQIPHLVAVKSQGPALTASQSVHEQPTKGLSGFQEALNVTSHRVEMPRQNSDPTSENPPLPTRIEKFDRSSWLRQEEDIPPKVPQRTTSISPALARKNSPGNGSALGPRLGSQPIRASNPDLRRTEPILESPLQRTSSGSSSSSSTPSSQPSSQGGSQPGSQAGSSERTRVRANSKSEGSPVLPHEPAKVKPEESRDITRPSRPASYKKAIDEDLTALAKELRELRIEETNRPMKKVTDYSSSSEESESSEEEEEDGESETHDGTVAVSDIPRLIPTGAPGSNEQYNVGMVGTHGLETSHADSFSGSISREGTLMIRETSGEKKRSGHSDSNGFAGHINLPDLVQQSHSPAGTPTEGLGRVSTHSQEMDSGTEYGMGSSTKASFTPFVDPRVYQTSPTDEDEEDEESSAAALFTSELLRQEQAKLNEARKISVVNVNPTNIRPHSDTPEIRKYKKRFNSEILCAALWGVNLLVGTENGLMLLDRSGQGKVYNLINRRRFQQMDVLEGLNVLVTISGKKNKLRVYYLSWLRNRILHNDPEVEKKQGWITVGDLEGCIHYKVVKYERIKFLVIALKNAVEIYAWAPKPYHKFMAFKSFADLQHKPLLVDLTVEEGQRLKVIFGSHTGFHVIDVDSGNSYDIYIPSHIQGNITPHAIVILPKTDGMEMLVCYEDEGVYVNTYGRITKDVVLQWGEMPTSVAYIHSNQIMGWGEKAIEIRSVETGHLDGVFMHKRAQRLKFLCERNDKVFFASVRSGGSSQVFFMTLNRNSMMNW
UniProt Q5T292: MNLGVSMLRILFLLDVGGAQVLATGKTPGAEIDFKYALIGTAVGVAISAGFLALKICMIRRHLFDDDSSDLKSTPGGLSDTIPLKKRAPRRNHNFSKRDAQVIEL
UniProt Q4KMQ1: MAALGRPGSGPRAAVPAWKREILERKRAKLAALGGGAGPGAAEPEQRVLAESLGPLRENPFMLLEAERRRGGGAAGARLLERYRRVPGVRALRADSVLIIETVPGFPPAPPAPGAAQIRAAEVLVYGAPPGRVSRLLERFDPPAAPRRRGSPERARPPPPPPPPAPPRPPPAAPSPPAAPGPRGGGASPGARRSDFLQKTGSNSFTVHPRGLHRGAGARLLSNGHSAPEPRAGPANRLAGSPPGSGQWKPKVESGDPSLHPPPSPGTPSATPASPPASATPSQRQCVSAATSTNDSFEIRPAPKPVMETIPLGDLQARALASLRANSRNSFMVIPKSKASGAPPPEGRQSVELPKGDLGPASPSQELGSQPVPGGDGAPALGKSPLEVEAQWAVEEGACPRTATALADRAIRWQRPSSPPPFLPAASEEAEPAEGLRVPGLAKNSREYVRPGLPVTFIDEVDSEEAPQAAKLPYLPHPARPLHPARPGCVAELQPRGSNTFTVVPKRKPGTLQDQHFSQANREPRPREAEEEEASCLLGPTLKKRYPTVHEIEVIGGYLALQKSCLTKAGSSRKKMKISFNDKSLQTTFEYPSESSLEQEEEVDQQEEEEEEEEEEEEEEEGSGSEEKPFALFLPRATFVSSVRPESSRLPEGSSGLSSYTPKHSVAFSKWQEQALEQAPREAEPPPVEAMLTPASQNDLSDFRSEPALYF
UniProt Q9Y2Y6: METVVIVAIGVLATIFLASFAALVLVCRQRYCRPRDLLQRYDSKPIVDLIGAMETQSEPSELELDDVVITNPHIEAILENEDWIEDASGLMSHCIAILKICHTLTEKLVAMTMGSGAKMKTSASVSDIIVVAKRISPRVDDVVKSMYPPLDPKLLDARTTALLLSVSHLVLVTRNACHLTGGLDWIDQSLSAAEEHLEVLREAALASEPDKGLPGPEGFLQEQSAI
UniProt P62328: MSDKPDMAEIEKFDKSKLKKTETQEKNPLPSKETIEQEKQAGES
UniProt Q9HCJ0: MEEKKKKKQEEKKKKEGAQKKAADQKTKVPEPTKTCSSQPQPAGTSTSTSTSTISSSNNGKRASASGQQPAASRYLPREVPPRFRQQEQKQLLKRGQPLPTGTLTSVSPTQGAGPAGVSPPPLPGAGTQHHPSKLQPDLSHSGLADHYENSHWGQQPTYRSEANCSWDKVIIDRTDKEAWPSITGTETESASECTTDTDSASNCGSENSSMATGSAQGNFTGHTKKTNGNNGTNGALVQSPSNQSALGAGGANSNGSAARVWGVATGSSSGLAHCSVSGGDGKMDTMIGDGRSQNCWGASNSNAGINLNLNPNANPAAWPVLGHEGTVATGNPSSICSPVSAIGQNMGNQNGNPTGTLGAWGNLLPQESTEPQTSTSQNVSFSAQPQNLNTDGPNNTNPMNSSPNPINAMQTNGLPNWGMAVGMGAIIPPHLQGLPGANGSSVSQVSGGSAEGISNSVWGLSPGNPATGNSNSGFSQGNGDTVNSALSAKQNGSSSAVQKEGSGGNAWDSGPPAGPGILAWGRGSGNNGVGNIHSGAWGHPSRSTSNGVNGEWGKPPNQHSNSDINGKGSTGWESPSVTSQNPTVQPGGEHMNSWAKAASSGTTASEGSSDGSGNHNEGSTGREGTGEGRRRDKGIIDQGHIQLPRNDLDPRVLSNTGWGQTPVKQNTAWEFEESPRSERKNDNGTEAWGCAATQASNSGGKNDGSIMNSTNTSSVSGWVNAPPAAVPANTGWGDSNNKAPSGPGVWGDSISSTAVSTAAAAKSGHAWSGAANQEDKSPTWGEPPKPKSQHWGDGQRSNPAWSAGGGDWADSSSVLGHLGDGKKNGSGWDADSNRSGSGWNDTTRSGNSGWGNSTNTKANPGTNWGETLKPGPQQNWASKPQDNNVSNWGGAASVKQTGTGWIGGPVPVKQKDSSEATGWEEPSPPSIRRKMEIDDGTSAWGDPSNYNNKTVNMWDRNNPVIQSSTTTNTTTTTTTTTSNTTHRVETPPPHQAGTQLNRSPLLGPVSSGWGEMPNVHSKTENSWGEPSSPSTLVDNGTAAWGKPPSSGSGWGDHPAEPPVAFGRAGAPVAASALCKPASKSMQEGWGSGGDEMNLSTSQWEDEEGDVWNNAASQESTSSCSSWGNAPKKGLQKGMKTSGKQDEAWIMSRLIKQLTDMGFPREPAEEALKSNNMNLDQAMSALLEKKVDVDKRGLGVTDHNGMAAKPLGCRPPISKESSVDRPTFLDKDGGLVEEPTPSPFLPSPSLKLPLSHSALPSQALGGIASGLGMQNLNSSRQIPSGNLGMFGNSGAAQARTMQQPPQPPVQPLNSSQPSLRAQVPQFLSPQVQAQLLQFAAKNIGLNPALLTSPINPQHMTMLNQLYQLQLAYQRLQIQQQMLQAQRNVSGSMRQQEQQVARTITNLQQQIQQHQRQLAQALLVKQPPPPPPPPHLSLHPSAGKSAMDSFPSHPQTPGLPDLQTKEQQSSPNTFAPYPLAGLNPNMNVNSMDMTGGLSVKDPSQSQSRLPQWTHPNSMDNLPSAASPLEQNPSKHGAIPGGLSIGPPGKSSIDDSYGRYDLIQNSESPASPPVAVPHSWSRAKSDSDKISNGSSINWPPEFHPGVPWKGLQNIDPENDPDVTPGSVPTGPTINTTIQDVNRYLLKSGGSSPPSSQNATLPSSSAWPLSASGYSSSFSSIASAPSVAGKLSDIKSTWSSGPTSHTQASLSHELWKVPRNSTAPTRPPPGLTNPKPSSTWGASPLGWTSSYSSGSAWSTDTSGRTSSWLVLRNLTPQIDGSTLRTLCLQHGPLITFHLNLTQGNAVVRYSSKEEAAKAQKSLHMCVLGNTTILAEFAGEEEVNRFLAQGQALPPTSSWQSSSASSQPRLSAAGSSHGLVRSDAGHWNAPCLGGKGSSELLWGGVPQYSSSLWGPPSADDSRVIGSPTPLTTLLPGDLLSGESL

Columns and labels:
Assay in all cases: log2 fold change, soluble protein after heating vs DMSO (PISA); higher = thermal stabilisation; K562 lysate, 10 uM; active = over 0.2 and 3.5 SD of the protein, either way, in both replicates (recomputed)
erlotinib = compound: C#Cc1cccc(Nc2ncnc3cc(OCCOC)c(OCCOC)cc23)c1 [erlotinib]
Procedure, shortened: (§1)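 K562 pellets were dounce-homogenised in PBS pH 7.4 containing 1 mM MgCl2, and the crude extract, at 1 mg/mL protein, was exposed to 10 μM compound for 30 min. Aliquots were heated for 3 min across 48°C-58°C, pooled, brought to 0.5% NP-40 at 4°C and spun at 21,000xg for 90 min, with the supernatant taken as soluble protein. TMTpro 16plex LC-MS/MS with equalised channel sums quantified that protein. Values are log-two fold changes in thermal stability relative to solvent controls, taken from duplicates.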

[1] = compound: C1=CC(=CC=C1C2=NC3=C(N2)C=C(C=C3)C(=O)N)OC4=CC=C(C=C4)Cl
Procedure, shortened: as §1

[2] = compound: C1=CC2=NC=CN=C2C=C1/C=C/3\C(=O)NC(=O)S3
Procedure, shortened: as §1

[3] = compound: C1=CC=C(C=C1)C2=NC(=C(N2)C3=CC=NC=C3)C4=CC(=C(C=C4)Cl)O
Procedure, shortened: as §1

[4] = compound: C1CCN(C1)C(=O)NC2=CC=CC(=C2)NC3=NC=C(C(=N3)NCCC4=CN=CN4)Br
Procedure, shortened: as §1

[5] = compound: C1CN(CCC1(CC2=CC=C(C=C2)Cl)N)C3=NC=NC4=C3C=CN4
Procedure, shortened: as §1

IRAK-1-4 Inhibitor I = compound: C1COCCN1CCN2C3=CC=CC=C3N=C2NC(=O)C4=CC(=CC=C4)[N+](=O)[O-] [IRAK-1-4 Inhibitor I]
Procedure, shortened: as §1

ibrutinib = compound: C=CC(=O)N1CCC[C@@H](n2nc(-c3ccc(Oc4ccccc4)cc3)c3c(N)ncnc32)C1 [ibrutinib]
Procedure, shortened: as §1

[6] = compound: CC(=O)c1cnc2ccc(-c3cc(Cl)c(O)c(Cl)c3)nc2c1N[C@H]1CC[C@H](CN(C)C)CC1
Procedure, shortened: as §1

ralimetinib = compound: CC(C)(C)Cn1c(N)nc2ccc(-c3[nH]c(C(C)(C)C)nc3-c3ccc(F)cc3)nc21 [ralimetinib]
Procedure, shortened: as §1

[7] = compound: CC(C)(O)CC(=O)NCCn1ccc2ncnc(Nc3ccc(Oc4cccc(C(F)(F)F)c4)c(Cl)c3)c21
Procedure, shortened: as §1

[8] = compound: CC(C)C1=C2N=C(C=C(N2N=C1)NCC3=CC=CC=C3)NCCCCCCN
Procedure, shortened: as §1

[9] = compound: CC1=C(C(CC(=O)N1)C2=CC=C(C=C2)C(F)(F)F)C(=O)NC3=C(C=C4C(=C3)C=NN4)F
Procedure, shortened: as §1

[10] = compound: CC1=C(C2=C(C=C1)C(=O)C3=CC=CC=C3N2CCCN)C
Procedure, shortened: as §1

[11] = compound: CC1=C(C=C(C=C1)NC(=O)C2=CC(=CC=C2)C(C)(C)C#N)NC3=CC4=C(C=C3)N=CN(C4=O)C
Procedure, shortened: as §1

[12] = compound: CC1=C(C=C(C=C1)NC(=O)C2=CC(=CC=C2)N(C)C)NC(=O)C3=CC=C(C=C3)O
Procedure, shortened: as §1

[13] = compound: CC1=CC=C(C=C1)SC2=C3C=C(SC3=CN=C2)C(=O)N
Procedure, shortened: as §1

[14] = compound: C/C(=N\NC(=O)C1=CC(=CC=C1)S(=O)(=O)N2CCOCC2)/C3=C(C=CC(=C3)Cl)O
Procedure, shortened: as §1

[15] = compound: C1=CC2=C(C=CC(=C2)/C=C\3/C(=O)NC(=NCC4=CC=CS4)S3)N=C1
Procedure, shortened: as §1

[16] = compound: C1=CC=C2C(=C1)C3=NNC4=CC=CC(=C43)C2=O
Procedure, shortened: as §1

Measured: log2 fold change

TMEM208 (UniProt Q9BTX3)
inactive: erlotinib 0.03 | [1] -0.216 | [2] 0.044 | [3] -0.132 | [4] -0.024 | [5] -0.076 | IRAK-1-4 Inhibitor I 0.018 | ibrutinib 0.019 | [6] 0.014 | ralimetinib 0.073 | [7] -0.127 | [8] -0.029 | [9] 0.042 | [10] -0.194 | [11] 0.088 | [12] 0.042 | [13] -0.45

TMEM237 isoform 3 (UniProt Q96Q45)
inactive: [14] -0.008 | [15] -0.051 | [3] 0.17 | [16] -0.084 | IRAK-1-4 Inhibitor I 0.035 | [6] 0.044 | ralimetinib 0.144 | [7] -0.04 | [9] -0.035 | [10] 0.068 | [11] -0.068 | [12] -0.06 | [13] -0.053

TMEM50A (UniProt O95807)
inactive: [4] -0.262 | [5] -0.73

TMTC4 isoform 3 (UniProt Q5T4D3)
inactive: [3] 0.09 | [4] 0.101 | [5] -0.045 | IRAK-1-4 Inhibitor I -0.076 | ralimetinib 0.208 | [7] -0.078 | [10] -0.258 | [12] -0.401

TMEM222 (UniProt Q9H0R3)
inactive: erlotinib 0.149 | [1] -0.015 | [2] -0.098 | [3] -0.104 | [4] 0.014 | [5] -0.034 | IRAK-1-4 Inhibitor I 0.126 | ibrutinib -0.133 | [6] 0.047 | ralimetinib 0.047 | [7] -0.13 | [8] -0.032 | [9] 0.092 | [10] -0.074 | [11] 0.049 | [12] 0.018 | [13] 0.079

TNFAIP1 (UniProt Q13829)
inactive: [2] -0.086 | [3] 0.044 | IRAK-1-4 Inhibitor I -0.013 | ibrutinib -0.04 | ralimetinib -0.075 | [7] 0.014 | [12] 0.042

TMEM246 (UniProt Q9BRR3)
inactive: erlotinib 0.147 | [1] -0.005 | [2] -0.154 | [3] 0.052 | IRAK-1-4 Inhibitor I 0.072 | ibrutinib 0.077 | ralimetinib 0.062 | [7] -0.261 | [8] 0.077 | [12] 0.042

TPT1 (UniProt E9PJF7)
inactive: erlotinib 0.177 | [1] 0.091 | [2] -0.702 | ibrutinib 0.23 | [6] 0.019 | [8] 0.018 | [11] 0.115 | [13] 0.001

TMEM242 (UniProt Q9NWH2)
inactive: [14] -0.094 | [15] -0.102 | [2] -0.022 | [3] -0.025 | [16] 0.188 | [4] -0.036 | [5] 0.001 | IRAK-1-4 Inhibitor I -0.084 | ibrutinib -0.233 | ralimetinib -0.013 | [7] -0.103 | [9] 0.059 | [10] -0.227 | [11] -0.053 | [12] 0.108

TMEM59 (UniProt Q9BXS4)
inactive: [3] -0.075 | IRAK-1-4 Inhibitor I 0.049 | ralimetinib 0.05 | [7] -0.109 | [12] -0.137

TPD52L2 isoform 3 (UniProt O43399)
inactive: erlotinib 0.008 | [1] -0.036 | [2] -0.028 | [3] -0.049 | IRAK-1-4 Inhibitor I 0.029 | ibrutinib 0.288 | ralimetinib 0.167 | [7] -0.038 | [8] 0.017 | [9] -0.007 | [12] 0.107

TPD52 isoform 3 (UniProt P55327)
inactive: erlotinib -0.179 | [1] 0.007 | [3] -0.086 | [4] 0.076 | [5] 0.037 | IRAK-1-4 Inhibitor I 0.03 | [6] -0.115 | ralimetinib 0.179 | [7] 0.029 | [8] 0.006 | [12] 0.036 | [13] -0.258

TNK2 isoform 3 (UniProt Q07912)
inactive: [2] 0.03 | [3] -0.117 | IRAK-1-4 Inhibitor I 0.454 | ibrutinib -0.236 | ralimetinib -0.1 | [7] -0.181 | [11] 0.044 | [12] 0.053

TMEM44 (UniProt Q2T9K0)
inactive: [2] 0.019 | [4] 0.055 | [5] 0.064 | ibrutinib 0.088 | [6] -0.059 | [10] 0.102 | [13] -0.104

TMEM79 (UniProt Q9BSE2)
inactive: [9] -0.084

TNIK isoform 5 (UniProt Q9UKE5)
inactive: [2] 0.008 | [3] 0.134 | IRAK-1-4 Inhibitor I -0.038 | ibrutinib 0.07 | [6] 0.345 | ralimetinib 0.016 | [7] -0.026 | [10] -0.091 | [11] 0.276 | [12] -0.004 | [13] -0.136

TMEM41B (UniProt Q5BJD5)
inactive: erlotinib -0.054 | [1] -0.016 | [2] -0.074 | [3] -0.113 | [4] 0.013 | [5] 0.037 | IRAK-1-4 Inhibitor I -0.02 | ibrutinib 0.018 | [6] -0.042 | ralimetinib 0.122 | [7] -0.043 | [8] -0.07 | [10] -0.077 | [11] -0.087 | [12] -0.143 | [13] 0.181

TMEM273 isoform 2 (UniProt Q5T292)
inactive: erlotinib 0.024 | [1] 0.077 | [2] -0.144 | [3] -0.112 | IRAK-1-4 Inhibitor I 0.033 | ibrutinib 0.1 | ralimetinib 0.084 | [7] 0.035 | [8] -0.056 | [11] 0.165 | [12] 0.058

TMPO isoform 2 (UniProt P42167)
inactive: [14] -0.053 | [15] 0.044 | [2] 0.143 | [16] -0.121 | [4] 0.163 | [5] 0.038 | ibrutinib -0.108 | [10] -0.006

TMEM209 (UniProt Q96SK2)
inactive: erlotinib -0.021 | [1] 0.009 | [2] 0.288 | [3] -0.094 | IRAK-1-4 Inhibitor I 0.028 | ibrutinib 0.141 | [6] 0.057 | ralimetinib 0.057 | [7] 0.043 | [8] -0.384 | [10] 0.073 | [11] 0.028 | [12] 0.035 | [13] -0.049

Pulled one by one from above (2):
TMEM209 (UniProt Q96SK2)
inactive: erlotinib -0.021 | [1] 0.009 | [2] 0.288 | [3] -0.094 | IRAK-1-4 Inhibitor I 0.028 | ibrutinib 0.141 | [6] 0.057 | ralimetinib 0.057 | [7] 0.043 | [8] -0.384 | [10] 0.073 | [11] 0.028 | [12] 0.035 | [13] -0.049

TMEM41B (UniProt Q5BJD5)
inactive: erlotinib -0.054 | [1] -0.016 | [2] -0.074 | [3] -0.113 | [4] 0.013 | [5] 0.037 | IRAK-1-4 Inhibitor I -0.02 | ibrutinib 0.018 | [6] -0.042 | ralimetinib 0.122 | [7] -0.043 | [8] -0.07 | [10] -0.077 | [11] -0.087 | [12] -0.143 | [13] 0.181

Next records:

TPRN (UniProt Q4KMQ1)
inactive: [10] 0.208 | [11] -0.003

TMEM98 (UniProt Q9Y2Y6)
inactive: [3] 0.111 | IRAK-1-4 Inhibitor I -0.063 | ralimetinib 0.079 | [7] 0.043 | [9] -0.017 | [12] -0.048

TMEM250 (UniProt H0YL14)
inactive: [11] 0.201

TMEM256 (UniProt Q8N2U0)
inactive: [14] 0.256 | [15] -0.128 | [16] 0.156 | [4] 0.264 | [5] -0.017 | [6] -0.059 | [10] 0.141 | [13] 0.084

TPRA1 (UniProt Q86W33)
inactive: erlotinib 0.115 | [1] -0.01 | [3] 0.028 | IRAK-1-4 Inhibitor I -0.052 | [6] -0.104 | ralimetinib -0.071 | [7] 0.014 | [8] 0.009 | [10] -0.019 | [11] 0.021 | [12] -0.029 | [13] -0.183

TMSB4X (UniProt P62328)
inactive: erlotinib 0.079 | [1] 0.084 | [2] -0.031 | [3] 0.002 | [4] 0.018 | [5] 0.085 | IRAK-1-4 Inhibitor I -0.083 | ibrutinib 0.519 | [6] -0.03 | ralimetinib 0 | [7] -0.072 | [8] 0.033 | [9] 0.122 | [11] -0.025 | [12] 0.075 | [13] -0.064

TMEM268 isoform 3 (UniProt Q5VZI3)
inactive: [3] 0.031 | [4] -0.092 | [5] -0.006 | IRAK-1-4 Inhibitor I -0.24 | ralimetinib -0.222 | [7] 0.084 | [10] -0.11 | [11] 0.062 | [12] 0.08

TNRC6C isoform 2 (UniProt Q9HCJ0)
inactive: erlotinib -0.016 | [1] -0.011 | [2] -0.008 | [3] -0.024 | [4] -0.197 | [5] 0.225 | IRAK-1-4 Inhibitor I -0.011 | ibrutinib 0.064 | [6] 0.013 | ralimetinib 0.044 | [7] 0.01 | [8] -0.025 | [10] -0.172 | [12] -0.005 | [13] 0.018
